From PMC10148881, “Recognition of an Ala-rich C-degron by the E3 ligase Pirh2” (Nature Communications, 2023)
These are yes or no findings as the source states them, for the method shown.

Sequences of proteins named here, by UniProt entry; tags and fusion partners are left off. A change or cut given only in a name is not applied to a line headed by its entry.
UniProt Q96PM5: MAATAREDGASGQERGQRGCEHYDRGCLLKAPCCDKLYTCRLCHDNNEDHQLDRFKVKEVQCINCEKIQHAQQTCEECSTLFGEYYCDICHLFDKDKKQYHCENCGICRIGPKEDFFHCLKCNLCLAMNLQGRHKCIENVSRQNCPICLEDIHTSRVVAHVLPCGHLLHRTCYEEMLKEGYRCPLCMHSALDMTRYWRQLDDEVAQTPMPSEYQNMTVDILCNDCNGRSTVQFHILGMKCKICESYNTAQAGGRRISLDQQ

Assays:
Test in all cases: condition: peptide 0.6–1.0 mM titrated into 180–220 μM protein; ITC; peptides (0.6–1.0 mM) titrated into the cell with 180–220 μM protein at 16 °C; 20 mM Tris-HCl pH 7.5, 150 mM NaCl, 10 μM Zn2+; one-site binding model; both purified
Pirh2 Y23A (human) = Pirh2 Y23A (human) (UniProt Q96PM5)
Pirh2 R109A (human) = Pirh2 R109A (human) (UniProt Q96PM5)
Pirh2 R41A (human) = Pirh2 R41A (human) (UniProt Q96PM5)

Measured: binding

YKTSAAAAAA [Ala6/C-degron peptide (sequence: …)]
no binding: Pirh2 Y23A (human) | Pirh2 R109A (human) | Pirh2 R41A (human)
